Measurements reported in PubChem BioAssay AID504784 (Drosophila RNAi Screening Center, 2011).

Purpose: 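Fly genes whose silencing alters how much lipid cells keep in droplets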 (primary screen)
Cells: Drosophila Kc167 embryonic cells
Knock-down reagent: long dsRNA against Drosophila genes, about 250 ng dsRNA per well
Timing: 4 days
Treatment: cells fed 400 µM oleic acid bound to BSA
Read-out: 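Cells imaged and segmented; ratio of lipid droplet area to nuclear area, log-transformed, then normalised as a B-score over the screen; higher means more stored lipid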
Direction: droplet/nuclear area B-score: higher = more stored lipid (overstorage)
The deposit covers about 17,000 reagents; shown is an unselected part of those with a known target gene and a result. 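Each column is one replicate's B-score; the combined score over replicates was not deposited, so single values may mislead.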 A plus sign joins genes that one reagent is predicted to hit. Reagent sequences are not shown.

The opening 2 entries as a preview:
no.	gene	amplicon	droplet/nuclear area B-score, replicate 1	droplet/nuclear area B-score, replicate 2	droplet/nuclear area B-score, replicate 3
1	CG1416	DRSC03706	1.51	0.0389	
2	CG7991	DRSC08609	-0.618	0.307	

The listing, from the first entry:
no.	gene	amplicon	droplet/nuclear area B-score, replicate 1	droplet/nuclear area B-score, replicate 2	droplet/nuclear area B-score, replicate 3
1	CG1416	DRSC03706	1.51	0.0389	
2	CG7991	DRSC08609	-0.618	0.307	
3	CG30105	DRSC05668	-1.1	-0.074	
4	sstn	DRSC10753	-0.213	-0.868	
5	CG5254	DRSC18611	-0.005	0.0297	
6	CG6770	DRSC02992	5.18	2.67	-0.409
7	Nt5c	DRSC06711	0.519	3.47	
8	kmg	DRSC02829	1.02	-0.642	
9	CG8353	DRSC03084	-0.394	-1.12	
10	Mpv17	DRSC17198	-0.647	-0.406	
11	Rift	DRSC14330	0.285	-0.933	
12	dpr5	DRSC15766	0.105	1.19	
13	CG32354	DRSC10763	0.819	-0.878	
14	CG32354	DRSC10775	-1.68	-0.448	0.00116
15	CG32354	DRSC21919	4.52	-3.39	
16	DIP-epsilon	DRSC00932	-0.198	-0.578	
17	DIP-epsilon	DRSC02313	-0.455	-2.61	
18	CG5973	DRSC02918	-1.43	0.0851	
19	Pos	DRSC15415	0.999	0.308	
20	CG13334	DRSC06369	-0.131	-0.276	
21	Arv1	DRSC11491	0.172	0.753	
22	CG12091	DRSC08251	0.38	0.454	
23	CG32376	DRSC22754	1.33	-0.501	
24	SkpE	DRSC19431	-1.77	-2.67	
25	7B2	DRSC11991	-0.0958	0.56	
26	CG6295	DRSC16012	0.0181	0.00527	
27	scpr-A + scpr-C	DRSC15737	-1.08	0.0151	
28	Ir48b	DRSC06320	-0.537	0.15	
29	CG5902	DRSC15912	1.56	-1.45	
30	CG32773 (retired record)	DRSC17330	3.02	3.68	
31	Cpr	DRSC03293	0.809	0.407	
32	rad50	DRSC04523	-0.196	0.855	
33	UQCR-11L	DRSC22166	-0.229	-0.175	
34	Ziz	DRSC02506	-0.122	-0.197	
35	Ziz	DRSC02976	-0.81	0.199	
36	Lpin	DRSC07241	-0.012	-1.26	
37	CG2614	DRSC02711	0.554	1.94	
38	t-cup	DRSC01254	-0.397	-0.618	
39	Ae2	DRSC08997	0.147	1.03	
40	Ae2	DRSC10969	0.331		
41	CG42561	DRSC05676	0.0554	1.11	
42	RpS28b	DRSC18258	4.39	-0.629	0.776
43	RpL27A	DRSC00781	2.37	3.47	
44	cv-d	DRSC16522	-1.55	-1.26	
45	cv-d	DRSC16524	0.44	-0.327	
46	cv-d	DRSC16526	-1.32	-1.04	
47	CG3687	DRSC06850	-1.11	-1.55	
48	Cht7	DRSC08538	-0.604	-1.04	
49	Cht7	DRSC21783	-1.08	0.985	
50	Ugt303A1	DRSC15641	0.0332	0.154	
51	CG30049	DRSC21345	0.673	0.411	
52	Pldn	DRSC10137	-1.39	-2.48	
53	zda	DRSC06936	0.904		
54	Ih	DRSC07445	0.662	-0.443	
55	snu	DRSC16589	-0.239		
56	CR31292	DRSC13120	-0.0724	-0.145	
57	Vti1b	DRSC16283	0.33	-0.553	
58	Vti1b	DRSC16284	-0.448	-0.342	
59	CG8187	DRSC07099	0.192		
60	gro	DRSC16962	0.401	0.645	
61	Npc2d	DRSC14551	0.135	0.0283	
62	Acsx4	DRSC14311	3.41	2.25	
63	mud	DRSC19019	0.143	-0.505	-0.305
64	Cpr65Au	DRSC22738	-0.014	-0.987	
65	CG42450	DRSC20022	-1.99	0.915	
66	CG42450	DRSC22751	-1.15	1.98	
67	CG10513	DRSC14248	0.0213	0.681	
68	Ube4B	DRSC03277	-1.49	0.888	
69	CG7220	DRSC05235	0.706	-0.422	
70	CG7220	DRSC07018	0.174	-0.157	
71	CG11123	DRSC06040	0.681	1.47	
72	GstD1	DRSC16683	-0.532	-0.818	
73	Rpn12R	DRSC09842	0.688	0.236	
74	CG43902	DRSC17999	2.59	1.23	1.52
75	CG12496	DRSC18602	0.307	-2.39	
76	PolA1	DRSC16640	2.28	3	
77	beta4GalNAcTA	DRSC05944	0.129	0.251	
78	ringer	DRSC10455	0.289	2.38	
79	Pdss2	DRSC11625	-0.0732	3.13	1.39
80	Golgin84	DRSC15269	-1.3	-2.07	
81	Rrp47	DRSC20124	4.13	0.933	
82	CG12395	DRSC19453	0.444	-0.192	
83	Mppe	DRSC07296	0.12	-1.22	
